In all, about 52,000 sequences went through this assay and about 210 (0.4%) were called active.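 How the source made its calls: active means gene whose silencing raises cell survival under the drug, median off-target-corrected z-score across its silencing RNAs 2 or more; inactive means the rest.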 The list shows a part of the results.
Experiment: Resistance to Poly (ADP-Ribose) Polymerase inhibitor: Gene Identification via Genome-wide siRNA Screen
Conditions: mouse BRCA2 R2336H ES cells, olaparib, CellTiter-Glo viability; stronger effect = higher value
Summary of the method: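 Genome-wide siRNA screen (3 siRNAs/gene, 20 nM) in mouse ES cells carrying hypomorphic BRCA2 R2336H; olaparib 500 nM added 48 h post-transfection, CellTiter-Glo viability 72 h later. Normalized to plate-median negative control; MAD z-scores, gene median, seed-adjusted.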

Sequence | z-score
GGUAUGUACUACAAACAAUTT against Pigl | inactive: 1.02
GGGACUAGACAUUUCUGUGTT against 1810046J19Rik | inactive: 0.996
CCAUCUCAUCCCGAGUUAUTT against BC024502 | inactive: 1.75
GCUAGGAAGCAGUUAAUGATT against C330046L10Rik | inactive: 0.0162
GCCCUCCAACCUCGAUAACTT against D430041B17 | inactive: 1.53
GGUCCUGUCUUUACAAUGUTT against C230094A16Rik | inactive: -1.13
GGUUAUCAUCUUGUGAAAATT against Srpk1 | inactive: 0.617
GGACAUCUUCAUUUACAGATT against Golga4 | inactive: -0.278
CCCUAGAAUUAUAUCCUGUTT against Col4a1 | inactive: -0.964
GGUGGUAACUACUGACAGCTT against Aebp1 | inactive: -0.601
GGUGUGACAUUGACCAUAGTT against Sil | inactive: 0.973
GGAUAUCAAAGACAAAGCATT against 3100002B05Rik | inactive: 0.612
GGUACAACCUCGAAACUGGTT against Brp44l | inactive: 0.44
GGAAUACUGAAUUUAAGGATT against Olfr1416 | inactive: 0.454
GGCAGUAAGGCUCCAAUCUTT against Tcp10a | inactive: -1.46
GGGAUCAGUGGAGUACUACTT against Ear6 | inactive: 0.0069
GGAGAAAGCCAAGAAGAAUTT against 1700003M02Rik | inactive: -0.399
GGCUUUCAGGCUUUUUGCATT against 9230117E20Rik | inactive: 0.224
GGAUCAGAUUAUUGAGAUGTT against Smfn | inactive: -0.181
GGCCCAAGCUCAACACAAUTT against 2610208M17Rik | inactive: 1
GCCUGACUAUGCUAAAGCUTT against Cyp4b1 | inactive: -0.982
GCCUGAUUCAGAGUAUAAATT against Col14a1 | inactive: -0.179
GGUGGAUUUUUUCUAAUACTT against Star | inactive: -0.779
GGCCUAUUUAACUAUAGUGTT against Anxa13 | inactive: 1.09
GGAGUGUGCCCUGAAAGAUTT against 5430413I02Rik | inactive: -0.00734
GGUCAGCAAUGGAAGUAAUTT against Onecut1 | inactive: 1.17

Sequence | z-score
GGGUGUCACAAAAUAAAAUTT against AI256711 | inactive: -1.52
CCGACUCUAACUGUGUCAGTT against BC025458 | inactive: -0.0633
GGGUAUCUGAUUUAUAAGCTT against Mageh1 | inactive: 0.315
GGUAGAGGAUCUCUCUAAATT against Fbxo44 | inactive: 0.327
CCCAAAAAGUUUUGCUAACTT against Ing1l | inactive: 0.491
GCUGCUGAUCAGUUCGAUCTT against B230219D22Rik | inactive: 0.561
GAAUCUCCAGAACCUAUUUTT against Pln | inactive: -0.881
CCUAAGAUUUUGGAACAAATT against 2610019I03Rik | inactive: -0.0808
CCCUAGUUACCAAUUCCACTT against Olfr293 | inactive: 0.9
GCUAAAUCUCAAUGACCACTT against Kcnn3 | inactive: 1.51
GGGAUCAAUGUGGACAGUUTT against Icosl | inactive: -1.96
GGAAUCCACGACAUGCUAGTT against Pacrg | inactive: 0.439
CCUGUACGUAUUUACAACUTT against 2410004B18Rik | inactive: 1.16
GCCUAUACACUUGGUAUUGTT against Tebp | inactive: 0.671
GGCACAGUGUGGAAAAGUUTT against Cst7 | inactive: -2.35
GCAGGGUUUUUCCAAUAUATT against Asah2 | inactive: -0.575
GGUGCAGUUUAAGAGAGAATT against C630016B22Rik | inactive: 0.153
GACUGAGCUUCUGUGAUGGTT against Olfr921 | inactive: -0.9
GCAUCAAGCCUGGAGAUUCTT against Upf3b | inactive: -1.45
GGAAAUGGACCUUCAAAUCTT against Ppm1h | inactive: 0.328
GGAAGUGAUGUACUUCCAATT against 1810019P04Rik | inactive: 0.578
GGACAAGAUAGGAGGAGACTT against Bat5 | inactive: -1.19
GCUGCACUAAAAAUCAAUUTT against Sall1 | inactive: 0.184
GGAUGGCUCUAUUUUUUUATT against BC037703 | inactive: 0.176
CCCUCGAGUGAUCAUUUUGTT against 3732419F12 | inactive: 0.464
GCAGCACAGAAAUGUUUCCTT against Tas2r106 | inactive: 0.64

Sequence | z-score
GGACCAUCCCUUCUUCUAUTT against Cabc1 | inactive: 0.0557
CCAUUUUUCAGAUUGUGAUTT against Tnfaip8 | inactive: 0.48
GGAUAGAUGCAACAAGUUUTT against B130055L09Rik | inactive: -0.459
GCAGAAAGCAUACGGAGGCTT against Nfatc2ip | inactive: 0.801
CCUCCAAUCCGUUGAAGAATT against 8430426H19Rik | inactive: 0.853
CCUAUCUCUUAGCAAAGAUTT against 2010003K11Rik | inactive: 0.523
GGUGGUCUCUGGCCUUUAUTT against Ccr8 | inactive: -0.732
CGGUCUUCCUACUUUUGGUTT against Qars | inactive: -2.15
GGAGAUCCCUAUUAUAAAGTT against Ankfy1 | inactive: 2.4
CCGGCCUAUCAGAGAUUGCTT against 2200002J24Rik | inactive: 0.75
GCCUUCGAGCUACGAUUAATT against Slc27a5 | inactive: -1.45
GGAUAAUUUAAACAUGGGATT against 6030411F23Rik | inactive: -0.0054
AUACUGGCUACAGUUUUUGTT against Olfr834 | inactive: -0.593
CCUGAGCCUGGUCUUAUGUTT against Olfr1423 | inactive: -2.16
GAUCGAAGCCUAAGACCGCTT against 1700006H02Rik | inactive: 0.661
GGCAUUCAUGGAGACUGUGTT against Zfpl1 | inactive: -1.52
CCCACAUUAAAUGAAUAGGTT against Traf4 | inactive: 0.126
GGCUCAGAUUGAUAGGAUATT against Gmfg | inactive: 0.877
CGGUAUCUACAUCAUAAACTT against Lamr1 | inactive: -0.497
GCAGGUUAAGUAGCUGACATT against Dnclic2 | inactive: -1.28
GCAGAAGUACGAAGGAGAATT against Abcd3 | inactive: -0.14
GGAGAUAAAUCCUUUGCAUTT against Zfp119 | inactive: 0.191
GGUGAAGUGUGUCAGUCUGTT against Orc6l | inactive: -1.23
GGCUCAAGAAGAAGAAUGCTT against P2ry1 | inactive: -2.15
GGCAGUAACUCAUGUGCCUTT against Gtlf3b | inactive: -0.173
GGCAUUUUUCAUCGAGUCGTT against Pfkfb3 | inactive: -0.2

A few values from above:
z-score, GGAGAUCCCUAUUAUAAAGTT against Ankfy1 is entered as inactive: 2.4
z-score, GGAUAAUUUAAACAUGGGATT against 6030411F23Rik is entered as inactive: -0.0054
z-score, GGCAUUCAUGGAGACUGUGTT against Zfpl1 is entered as inactive: -1.52
z-score, GGCAGUAACUCAUGUGCCUTT against Gtlf3b is entered as inactive: -0.173

The results go on:

Sequence | z-score
GCUGGCUAGUUUGGGCAUATT against 0610009M14Rik | inactive: -0.192
GCUCGCACAUUUGACUUGGTT against 4833422F06Rik | inactive: 1.41
GGAUCGUGUGGAACACCUCTT against BC060632 | inactive: -0.043
GCAUUAUCAACCGGAUUGATT against Rgs19ip3 | inactive: -0.325
GGUGAUCUACUACAGGAAUTT against Fcer1a | inactive: -0.822
GGUUUACCAGAAACACUGATT against 2310056P07Rik | inactive: 0.102
GGGAGAGGCAACCUGUAUCTT against Chchd1 | inactive: 0.115
CCCUAGUCUCUCUUCAAUCTT against Prss2 | inactive: -0.775
GGAUGAGGAGGAAAAGCUGTT against Nol1 | inactive: -0.634
GGUCAAUACCAUGUGUAUUTT against Rev1l | inactive: -0.568
GGCAUGGAUCCUGAAAAACTT against 4932416N17Rik | inactive: -0.877
GGUGCAUCACCAGAACUCGTT against Ch25h | inactive: 0.885
CCAAAACGUGCAACACAAUTT against Cops6 | inactive: -2.34
GGCUGCUCAUACGAUUAAUTT against Nek11 | inactive: 1.58
GGAUGGAAUCAUUUGUAGCTT against Apba3 | inactive: -0.878
GGAUCUUAGAGAUGAUUACTT against Tmem20 | inactive: 0.467
GGCAUUCCUCGGAAGUCAATT against Smad7 | inactive: 2.41
GGAUAUGUGUUCAUCCUGUTT against 4930442L21Rik | inactive: 0.741
UGGAAUAAUUACCCAUGCUTT against LOC544988 | inactive: 0.0658
CCUGAUACCACGACAAGAATT against Daf2 | inactive: 0.0625
GCAAAGAAGUUGGGAUAUCTT against Rad51c | inactive: -3
GGAGCAGAGGCUACAAAGATT against Prc1 | inactive: -3.16
GGAGUGAUCAUCUAUAAUUTT against Rnf133 | inactive: 0.704
GGUCGAGAGAAACGGAACUTT against Lrrc3 | inactive: 1.43
CCAUACGAACAGACAUUUUTT against Tcn2 | inactive: -1.4

From PubChem BioAssay AID1347423 (Functional Genomics Laboratory (NCATS/FGL), 2020)
